This is one part of the list.
system: T1, CTL2-GFP (C. trachomatis L2/434/Bu, GFP-expressing); design: species or system HeLa; Intracellular C. trachomatis growth in HeLa cells, bulk GFP fluorescence relative to DMSO; conditions: bulk GFP, single well; 28.5 h, 10 µM; inhibitor
T1 construct: L2/434/Bu, GFP-expressing

SMILES	% of control remaining [%]
CC(N)C(=O)NC1CCN(c2nc3c(cc2F)c(=O)c(C(=O)O)cn3C23CC(C2)C3)C1 (centres unmarked) [CBK016632]	13.2266
CCc1nc2c(OCC3CCCCC3)cccn2c1N(C=O)Cc1ccc(OC)cc1 [CBK147811]	115.317
CC(=O)N1CCc2cc(C(=O)CN3CCOCC3)ccc21 [CBK291105]	128.096
Cc1cccnc1C1(O)CCN(C(=O)NCc2ccccc2)CC1 [CBK282293]	135.307
Cc1nc(-c2ccc(CNC(=O)C(Cc3ccccc3)N3CCCC3)cc2)ccc1C(N)=O (centres unmarked) [CBK286017]	118.878
O=C(O)c1ccn(-c2ccc(NS(=O)(=O)c3ccc(N4CCCC4=O)cc3)cc2)n1 [CBK298327]	152.409
CC(=O)c1ccc(S(=O)(=O)NCc2ccc(C(F)(F)F)cc2)cc1 [CBK044314]	123.984
CC1=NN(c2ccccc2)C(=O)/C1=C\c1cn(CCC(=O)O)nc1-c1cc2ccccc2o1 [CBK265252]	100
CCNC(=S)N1CCN(C(=O)c2cccc(OC)c2)CC1 [CBK154778]	136.895
NC(=O)CCC(=O)N1CCC2(C/C=C/CCOc3ccccc3C(=O)NCCCNC2=O)CC1 [CBK292059]	93.3017
CCOC(=O)CNS(=O)(=O)c1cc(Cl)sc1Cl [CBK034431]	127.655
Cc1ccc2cc(CN(Cc3ccc4c(c3)OCO4)Cc3nnnn3Cc3ccco3)c(=O)[nH]c2c1 [CBK108949]	114.987
Cc1ccccc1CNC(=O)CN(c1cccc(C(F)(F)F)c1)S(=O)(=O)c1ccccc1 [CBK264047]	110.029
CC(=O)NS(=O)(=O)c1ccc(-c2ccc(/C=C(/C#N)c3nc4ccc(C)cc4[nH]3)o2)cc1 [CBK264771]	100
O=C(CCCN1C(=O)c2ccccc2C1=O)Nc1ccc(C(=O)O)cc1 [CBK287043]	125.093
CCn1cc(C(=O)NN)c(=O)c2cc(F)c(NN)cc21 [CBK262735]	113.113
Cc1nccn1C1CCCN(C(C)C(=O)NC2(C#N)CCCCC2)C1 (centres unmarked) [CBK304194]	97.0213
COc1ccc(NC(=O)CSc2nnc(C(O)c3ccccc3)n2C)cc1 (centres unmarked) [CBK266053]	140.595
COc1ccc(OCCN2CCc3ccccc3C2)cc1 [CBK126403]	105.72
Cc1ccc(N(CC(=O)NCC2CCCO2)S(=O)(=O)c2ccc(Cl)cc2)cc1 (centres unmarked) [CBK269039]	179.442
CCCCC(c1ccc(Cl)cc1)N(CCN(C)C)c1ccccn1 (centres unmarked) [CBK012315F]	80.7107
O=C(Oc1ccccc1)N1CCC(n2c(=O)[nH]c3ccccc32)CC1 [CBK149865]	100.541
CN(C)CCC(O)(c1ccccc1)c1cc2c(cc1Cl)CCC2 (centres unmarked) [CBK010000C]	131.665
S=C(Nc1nc2c(s1)CCCC2)NC1CC1 [CBK288425]	102.529
CCn1ccnc1CN1CCCC(CCc2ccccc2F)C1 (centres unmarked) [CBK307173]	133.255

SMILES	% of control remaining [%]
O=C(C1CCCC1)N1CCC(n2c(=O)oc3ccccc32)CC1 [CBK284349]	100.908
CCC(C)NC(=O)C(Cc1ccc([N+](=O)[O-])cc1)N1C(=O)c2ccccc2C1=O (centres unmarked) [CBK261278]	96.1902
CCNC(=O)N1CC2(CCN(C/C=C/c3ccccc3)CC2)c2ccccc21 [CBK144596T]	103.883
COc1ncc(-c2ccc(N3CCN(c4ccncc4)CC3)nc2)c(OC)n1 [CBK036848]	126.581
O=C1CSC2(C(=O)Nc3ccccc32)N1c1ccc2ccccc2c1 (centres unmarked) [CBK093461]	84.0523
CCn1cc(CN(C)C(=S)Nc2cccc(C(C)=O)c2)c(C)n1 [CBK267040]	154.283
COc1ccc(C2(C(=O)NCc3ccncc3)CCOCC2)cc1 [CBK287991]	125.443
Cc1cc2c(SCc3cc(O)[nH]n3)ncnc2s1 [CBK269799]	97.1216
CCc1nnc(NS(=O)(=O)c2ccc(NC(=O)c3ccccc3[N+](=O)[O-])cc2)s1 [CBK045494]	115.551
COc1ccc(OC(=O)COc2nc3c(C)cc(C)nc3[nH]2)cc1 [CBK269290]	96.7667
CC(=O)c1c(C(=O)O)[nH]c(C(=O)O)c1C [CBK263934]	125.919
NCCCCCCNC(=O)c1c(O)c2ccccc2oc1=O [CBK261071]	112.493
Oc1c(Br)cc2oc3c(c2c1CNc1ccccc1)CCCC3 [CBK160397]	121.66
CC(=O)N/C(=C/c1ccccc1)C(=O)NCCC(=O)O [CBK264046]	111.261
COC[C@@H]1CCCN1S(=O)(=O)c1ccc(C(C)C)cc1 [CBK200045]	160.282
O=S(=O)(NCc1cccnc1)c1ccc(Cl)c(Cl)c1Cl [CBK264032]	127.87
Cc1ncsc1CCOc1cccc(C(F)(F)F)n1 [CBK115794]	126.096
COc1ccccc1CN1CCCC(c2nc(C)n3ccccc23)C1 (centres unmarked) [CBK283026]	121.289
CN(C)C(=O)c1ccc(-c2cnc(N)c(-c3ccc(O)cc3)n2)cc1 [CBK116686]	122.146
Cc1cc2oc(C(=O)Nc3sc4c(c3C#N)CCCC4)c(C)c2cc1C [CBK266301]	138.444
Cc1noc(C)c1CC(=O)NC(CN1CCCCC1)c1ccccc1 (centres unmarked) [CBK281507]	137.401
CCC(NC(=O)CCOC)c1cn2cccnc2n1 (centres unmarked) [CBK306560]	103.484
CC(NC(=O)C1CC=CCC1C(=O)O)C1CC2CCC1C2 (centres unmarked) [CBK027112]	116.885
CCCOc1ccc(C2(CCCCN3CCCC3)C(=O)Oc3ccc(C(C)(C)C)cc32)cc1 (centres unmarked) [CBK017655C]	100.365
CC(C)(C)OC(=O)NCc1ccc(-c2ccc(Nc3cccnc3)nc2)cc1 [CBK037804]	121.196

Of the compounds above, these have a nitro group on carbon.
SMILES	% of control remaining [%]
CCC(C)NC(=O)C(Cc1ccc([N+](=O)[O-])cc1)N1C(=O)c2ccccc2C1=O (centres unmarked) [CBK261278]	96.1902
CCc1nnc(NS(=O)(=O)c2ccc(NC(=O)c3ccccc3[N+](=O)[O-])cc2)s1 [CBK045494]	115.551
